Results as given in article doi:10.1101/2024.02.27.582253.
Substitutions are numbered along the chain they refer to. Results are given in words; binding and its absence hold for the method and conditions named. Binding seen in cells or lysates may run through a third protein. Some entries that bind do so weakly or less than the wild type. Tags and fused reporters may be left off the sequences shown. Each block holds one binder with its values, some of them ahead of it.

How the values were obtained:
Test in all cases: co-IP
[1] = target: T1, Upf1-FL-TAP (S. cerevisiae full-length Upf1, TAP tag) (S. cerevisiae) (UniProt P30771)
T1 sequence: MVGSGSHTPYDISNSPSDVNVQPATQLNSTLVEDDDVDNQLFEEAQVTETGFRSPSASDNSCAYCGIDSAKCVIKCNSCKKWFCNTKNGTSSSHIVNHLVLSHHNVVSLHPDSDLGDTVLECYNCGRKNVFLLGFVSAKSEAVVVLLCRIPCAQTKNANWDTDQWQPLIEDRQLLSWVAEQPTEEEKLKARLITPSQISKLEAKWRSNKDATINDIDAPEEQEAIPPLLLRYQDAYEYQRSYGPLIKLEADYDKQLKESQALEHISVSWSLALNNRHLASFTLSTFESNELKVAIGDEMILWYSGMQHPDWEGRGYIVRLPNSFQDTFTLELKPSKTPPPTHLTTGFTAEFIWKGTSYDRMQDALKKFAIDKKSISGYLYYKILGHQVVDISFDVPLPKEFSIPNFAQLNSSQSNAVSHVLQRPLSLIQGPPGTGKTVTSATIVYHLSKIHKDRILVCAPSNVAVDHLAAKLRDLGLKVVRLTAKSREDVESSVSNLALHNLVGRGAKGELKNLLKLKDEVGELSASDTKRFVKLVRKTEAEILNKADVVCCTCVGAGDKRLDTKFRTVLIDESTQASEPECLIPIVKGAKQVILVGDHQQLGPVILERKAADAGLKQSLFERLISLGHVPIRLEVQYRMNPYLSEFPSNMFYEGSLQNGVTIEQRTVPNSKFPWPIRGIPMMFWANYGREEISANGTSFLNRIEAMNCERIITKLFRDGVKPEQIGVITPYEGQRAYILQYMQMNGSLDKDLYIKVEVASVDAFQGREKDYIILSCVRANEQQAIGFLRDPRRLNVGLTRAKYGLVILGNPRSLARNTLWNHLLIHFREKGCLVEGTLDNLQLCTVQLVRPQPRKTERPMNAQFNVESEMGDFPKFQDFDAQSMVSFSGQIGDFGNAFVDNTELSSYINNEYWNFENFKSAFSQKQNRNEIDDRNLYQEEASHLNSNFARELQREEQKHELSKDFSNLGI

[2] = target: T2, TAP-Upf1-FL (S. cerevisiae full-length Upf1, N-terminal TAP tag, from a plasmid) (S. cerevisiae) (UniProt P30771)
T2 sequence: T1 sequence

[3] = target: T3, TAP-Upf1-FL-G377R (S. cerevisiae) (S. cerevisiae) (UniProt P30771)
T3 sequence: T1 sequence with G377R

[4] = target: T4, TAP-Upf1-FL-G243R (S. cerevisiae) (S. cerevisiae) (UniProt P30771)
T4 sequence: T1 sequence with G243R

- binding [1]: no binding
B1: Nmd4-PIN-HA (S. cerevisiae Nmd4-[1-168], C-terminal 3HA tag at the genomic locus) (domain or fragment, UniProt Q12129 1-168)
chain: MTQYNFIIDASAFEKGLGNIKRWCSDCTEAVTLNFYIPTFTLNELDFLQQRRKSFAARESLKFIDRLDDSKFANLKVFIEFPEVLDIILWSDVMEHNDSSGKINIAKLPKRLKNLLKSCIYKCYLEGNEGLHWFLISEDPQIREMAMQCNIPSCSIVDVDSILSKDMN

- binding [2]: binds
- binding [3]: binds weakly
- binding [4]: binds weakly
- binding [1]: binds
B2: Nmd4-FL-HA (S. cerevisiae, C-terminal 3HA tag at the genomic locus) (protein, UniProt Q12129 1-218)
chain: MTQYNFIIDASAFEKGLGNIKRWCSDCTEAVTLNFYIPTFTLNELDFLQQRRKSFAARESLKFIDRLDDSKFANLKVFIEFPEVLDIILWSDVMEHNDSSGKINIAKLPKRLKNLLKSCIYKCYLEGNEGLHWFLISEDPQIREMAMQCNIPSCSIVDVDSILSKDMNDKSFRESEKFNNMMLKNGTKEESENGREIIRTNFNKTVYASRGTGELWSP
